Source: US20240350460A1, “APPLICATION OF HYDRAZIDE COMPOUND IN TUMOR TREATMENT” (NANJING SHIJIANG MEDICINE TECHNOLOGY CO., LTD, priority 2021, published 2024)

Tested on: 786-O
Assay: Cell viability (Promega CellTiter-Glo), inhibitory effect on tumor cell line
Format: cell-based
Conditions: Homo sapiens, 786-0, clear cell renal cell adenocarcinoma cell, insensitive group, 3-4 days of culture, n=3
Method: The inhibitory effect of nifuroxazide or furazolidone on various tumor cell lines was detected using cell activity detection reagent. Cell viability was detected using the Promega CellTiter-Glo kit, cell viability was determined by directly measuring intracellular ATP content. […] Each tumor cell was cultured separately in relevant medium (+p/s), and was incubated for 3 h, then the gradient diluted nifuroxazide or furazolidone was added. […] The name, source and culture conditions of each tumor cell line were as follows: Cell line 786-O (ATCC, No. CRL-1932) was cultured in 10% fetal bovine serum-containing RPMI1640 medium (+P/S).

**Q.** How did the IC50 turn out when `O=C1OCCN1/N=C/c1ccc([N+](=O)[O-])o1` [Furazolidone, furazolidone] was run?
**A.** The IC50 was > 50 µM.
